Test results as given in paper PMC2500165.
Construct, isoform or probe ends are uncertain for at least one entry.

Biological target: NarP (SO3982), phosphorylated (Shewanella oneidensis MR-1) (UniProt Q8EAC5)
Assay: EMSA
Conditions: carbamoyl phosphate-phosphorylated; EMSA as described for ArcA by Gao et al. [33] with SYBR Green staining; binding buffer; recombinant protein; residues 1-209; protein details: N-terminal 6xHis (pTP247, pDEST17-derived); label: none (SYBR Green staining); probe letters rebuilt from the primers and the genome

TTGCGAGGCTCAGTTTTATCACTCGCCATAGCCCCCGCAGCCATAAAGCTGGCGGCAACCAATGCACTTAATGCAAAAGTCTTACCTGTCATCTTCTTCATCATCTCATCTCCGCGTTGCATTTTTGTTGTAAAACACGACATCTCCAGCGCCAAAGTTAGTAGCTAAATACCGCTAAAAATATACCTCTTAGGGGGTATCTGAAACGAAGTTTGCGCTAGATCAAAATGTAATAGTGTTGTTGTTCACACTTCTATGCTTTTGTTAATGTAATACATTATTTTCTAATGTAAAAAACACGGCTAAAGTACCATTAGCTCAAGCGCCACAAGGTATTCGACATATGAAACGAGGCAGTCTTACCTCAAAAATTCTGGGTTTAATGTTAGTACTGATTTTGCTTTCTAGCAGCCTAGCGATTTTCGCAATCATCAATTTGTCATACAGCTTAGGCGATGCGAAAGCCATCAACGCTTCGGGTTCACTGCGGATGCAAAGCTATCGGCTGATGTTTTACGCCAATTCTGG (double strand) [narP-nrfA promoter DNA]
binding result: binds
